According to KR20130140557A:
These are yes or no findings as the source states them, for the method shown. Some results given as binding are weak or reduced against the parent protein; the word gives no strength.

Chains of the proteins cited; added tags and fusions are not shown. Residues count along the entry.
UniProt P08887, residues 20-365: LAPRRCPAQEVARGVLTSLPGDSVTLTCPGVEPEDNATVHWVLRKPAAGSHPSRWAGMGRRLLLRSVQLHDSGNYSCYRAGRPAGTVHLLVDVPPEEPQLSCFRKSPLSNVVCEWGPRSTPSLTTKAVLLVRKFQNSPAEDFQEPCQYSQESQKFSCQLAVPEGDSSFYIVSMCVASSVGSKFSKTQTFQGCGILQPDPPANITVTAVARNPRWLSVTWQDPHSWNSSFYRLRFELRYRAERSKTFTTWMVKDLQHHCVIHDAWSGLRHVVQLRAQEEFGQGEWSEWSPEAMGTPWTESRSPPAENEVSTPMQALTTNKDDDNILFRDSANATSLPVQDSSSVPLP

Target: IL-6R-Fc 항원 (IL-6R full domain 단백질) (human) (UniProt P08887)
Test: ELISA titration on coated IL-6R

B1: 항 IL-6R 단클론 항체 A7 (IgG) (antibody, V domains shown)
VH: QMQLVESGGGLVQPGTSLRLSCAASGFKFEDYAMHWVRQAPGKGLEWVSGVSWNSGTIAYVDSVKGRFTISRDNAKNSLYLQMNSLRAEDTAVYYCARDFTYFYESSGYYAFDLWGQGTMVTVSS
VL: SQLVLTQPPSVSGAPGQRVTISCTGTNSNIGAGYDVHWYQQVPGTTPKLLIYGNTNRPSGVPDRFSGSKSGTSASLAITGLQAEDGGDYYCQSFDSSLTGSVFGTGTKVTVL
  binding: binds

B2: 항 IL-6R 단클론 항체 F2 (IgG) (antibody, V domains shown)
VH: QVQLVESGAEVKKPGASVKVSCKASGYTFTNYYMHWVRQAPGQGLEWMGIINPSGGNTGYAQKFQGRVTMTRDMSTSTAYMELSSLRSEDTAVYYCARGLPWGENGLDVWGQGTTVTVSS
VL: SQLVLTQPSSVSGAPGQTVTISCTGSSSNIGAGYDVHWYQQLPGTAPKVLIYGDSDRPSGVPDRFSGSKSATSASLAITGLQAEDEADYYCQSYDSSLSAYVFGTGTKVTVL
  binding: binds
